Data taken from the supplement of paper PMC12067093, “Discovery and optimisation of a covalent ligand for TRIM25 and its application to targeted protein ubiquitination” (Chemical Science, 2025).
Some of the results follow.

Chains of the proteins cited; added tags and fusions are not shown. Lines headed by an entry give the natural chain unless they say otherwise; changes in a name come on top.
UniProt Q9BYV8: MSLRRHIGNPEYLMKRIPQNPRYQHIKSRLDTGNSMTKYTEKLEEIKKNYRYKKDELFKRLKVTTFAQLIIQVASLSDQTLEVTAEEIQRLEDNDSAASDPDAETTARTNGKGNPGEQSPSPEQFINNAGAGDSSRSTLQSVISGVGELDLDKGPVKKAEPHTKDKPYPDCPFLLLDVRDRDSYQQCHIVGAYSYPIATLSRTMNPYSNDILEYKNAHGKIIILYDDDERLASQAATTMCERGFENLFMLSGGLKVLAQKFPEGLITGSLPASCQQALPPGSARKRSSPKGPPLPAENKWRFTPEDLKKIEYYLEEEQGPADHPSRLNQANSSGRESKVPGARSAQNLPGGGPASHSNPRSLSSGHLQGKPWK
UniProt Q8IW35: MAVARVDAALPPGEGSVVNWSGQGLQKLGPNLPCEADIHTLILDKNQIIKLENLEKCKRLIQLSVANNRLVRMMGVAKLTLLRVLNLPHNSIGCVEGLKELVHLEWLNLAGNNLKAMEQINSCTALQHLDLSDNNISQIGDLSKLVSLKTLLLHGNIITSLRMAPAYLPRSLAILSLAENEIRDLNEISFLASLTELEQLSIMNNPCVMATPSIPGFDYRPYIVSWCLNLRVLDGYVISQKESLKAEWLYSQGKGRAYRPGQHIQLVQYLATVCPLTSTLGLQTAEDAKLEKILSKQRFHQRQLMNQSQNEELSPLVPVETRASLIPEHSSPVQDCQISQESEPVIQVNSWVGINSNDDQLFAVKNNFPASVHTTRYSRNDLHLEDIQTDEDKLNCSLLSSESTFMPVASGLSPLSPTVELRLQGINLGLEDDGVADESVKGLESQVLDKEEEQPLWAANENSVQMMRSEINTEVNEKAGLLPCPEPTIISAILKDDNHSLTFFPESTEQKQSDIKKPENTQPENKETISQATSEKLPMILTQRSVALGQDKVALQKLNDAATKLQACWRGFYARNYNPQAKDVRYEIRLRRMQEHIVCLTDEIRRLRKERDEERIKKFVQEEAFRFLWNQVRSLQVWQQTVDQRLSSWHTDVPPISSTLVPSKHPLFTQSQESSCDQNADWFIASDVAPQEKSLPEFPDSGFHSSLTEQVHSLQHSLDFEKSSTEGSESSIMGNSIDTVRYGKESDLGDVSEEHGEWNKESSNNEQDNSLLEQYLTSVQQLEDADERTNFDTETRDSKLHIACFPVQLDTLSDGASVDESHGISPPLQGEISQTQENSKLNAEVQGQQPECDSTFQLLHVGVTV

Columns and labels:
Experiment in all cases: probe-labelled cysteine peptide fold change vs DMSO (competition) (log2 fold change); higher = less target engagement (more negative = stronger competition)
Conditions in all cases: THP-1, incubation time: 4 h
[1] = biological target: CEP41_Q9BYV8_187_DRDSYQQCHIVGAYSYPIATLSR (UniProt Q9BYV8)
[2] = biological target: CEP97_Q8IW35_599_MQEHIVCLTDEIR (UniProt Q8IW35)
[3] = biological target: CEP97_Q8IW35_599_MQEHIVCLTDEIRR (UniProt Q8IW35)
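Note: competitive profiling in live THP-1 cells: cysteine peptides tagged with an iodoacetamide desthiobiotin (IA-DTB) probe, intensity after compound treatment relative to DMSO-treated cells.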

Cc1cc(C(=O)N2CCCN(C(=O)CCl)CC2)ccc1-c1ccccc1 [compound 10]
probe-labelled cysteine peptide fold change ([1]; 10 µM): 0.126
probe-labelled cysteine peptide fold change ([1]; 50 µM): 0.106
probe-labelled cysteine peptide fold change ([2]; 10 µM): -0.0881
probe-labelled cysteine peptide fold change ([2]; 50 µM): -0.293
probe-labelled cysteine peptide fold change ([3]; 10 µM): -0.179
probe-labelled cysteine peptide fold change ([3]; 50 µM): -0.741
